# Assay results as given in patent US20240058268A1, “METHODS OF TREATING SKIN DISORDERS” (priority 2021, published 2024).
# System: acne papule biopsies, Ingenuity Canonical Pathways
# Assay: Ingenuity Pathway Analysis, canonical pathways of the trifarotene signature
# Type: in vivo, human
# Conditions: trifarotene treated area (day 27) vs papule before treatment
compound,measurement,value
"CC(C)(C)c1cc(-c2cc(-c3ccc(C(=O)O)cc3)ccc2OCCO)ccc1N1CCCC1 [Trifarotene, 3″-tert-Butyl-4′-(2-hydroxy-ethoxy)-4″-pyrrolidin-1-yl-[1,1′,3′,1″ ]terphenyl-4-carboxylic acid]",z score Trifarotene Profile: Acute Phase Response Signaling,−3.638
same,z score Trifarotene Profile: Complement System,−1.897
same,z score Trifarotene Profile: Crosstalk between Dendritic Cells and Natural Killer Cells,−4.123
same,z score Trifarotene Profile: Dendritic Cell Maturation,−4.899
same,z score Trifarotene Profile: Fcγ Receptor-mediated Phagocytosis in Macrophages and Monocytes,−3.464
same,z score Trifarotene Profile: HMGB1 Signaling,−3.606
same,z score Trifarotene Profile: HOTAIR Regulatory Pathway,−2.324
same,z score Trifarotene Profile: Hepatic Fibrosis Signaling Pathway,−3.889
same,z score Trifarotene Profile: IL-6 Signaling,−3.051
same,z score Trifarotene Profile: IL-17A Signaling in Airway Cells,−2.646
same,z score Trifarotene Profile: Inhibition of Matrix Metalloproteases,1.897
same,z score Trifarotene Profile: LPS/IL-1 Mediated Inhibition of RXR Function,−1.667
same,z score Trifarotene Profile: LXR/RXR Activation,1.46
same,z score Trifarotene Profile: Leukocyte Extravasation Signaling,−3.838
same,z score Trifarotene Profile: NAD biosynthesis II (from tryptophan),−2
same,z score Trifarotene Profile: Natural Killer Cell Signaling,−3.545
same,z score Trifarotene Profile: Osteoarthritis Pathway,−3.273
same,z score Trifarotene Profile: Production of Nitric Oxide and Reactive Oxygen Species in Macrophages,−3.9
same,z score Trifarotene Profile: Role of IL-17F in Allergic Inflammatory Airway Diseases,−2.53
same,z score Trifarotene Profile: Role of NFAT in Regulation of the Immune Response,−3.771
same,z score Trifarotene Profile: Role of Pattern Recognition Receptors in Recognition of Bacteria and Viruses,−3.873
same,z score Trifarotene Profile: Systemic Lupus Erythematosus In B Cell Signaling Pathway,−2.294
same,z score Trifarotene Profile: TREM1 Signaling,−4.796
same,z score Trifarotene Profile: Th1 Pathway,−2.84
same,z score Trifarotene Profile: Th2 Pathway,−1.807
same,z score Trifarotene Profile: Tryptophan Degradation to 2-amino-3-carboxymuconate Semialdehyde,−2
